In the assay the target is MSH3_P20585_1015_SLTLFVTHYPPVCELEK (UniProt P20585). Briefly: probe-labelled cysteine peptide fold change vs DMSO (competition) (log2 fold change); higher = less target engagement (more negative = stronger competition). Particulars: THP-1, incubation time: 4 h.

Protein sequences, listed by entry. Tags and fused reporters are not part of them. Lines headed by an entry give the natural chain unless they say otherwise; changes in a name come on top.
UniProt P20585: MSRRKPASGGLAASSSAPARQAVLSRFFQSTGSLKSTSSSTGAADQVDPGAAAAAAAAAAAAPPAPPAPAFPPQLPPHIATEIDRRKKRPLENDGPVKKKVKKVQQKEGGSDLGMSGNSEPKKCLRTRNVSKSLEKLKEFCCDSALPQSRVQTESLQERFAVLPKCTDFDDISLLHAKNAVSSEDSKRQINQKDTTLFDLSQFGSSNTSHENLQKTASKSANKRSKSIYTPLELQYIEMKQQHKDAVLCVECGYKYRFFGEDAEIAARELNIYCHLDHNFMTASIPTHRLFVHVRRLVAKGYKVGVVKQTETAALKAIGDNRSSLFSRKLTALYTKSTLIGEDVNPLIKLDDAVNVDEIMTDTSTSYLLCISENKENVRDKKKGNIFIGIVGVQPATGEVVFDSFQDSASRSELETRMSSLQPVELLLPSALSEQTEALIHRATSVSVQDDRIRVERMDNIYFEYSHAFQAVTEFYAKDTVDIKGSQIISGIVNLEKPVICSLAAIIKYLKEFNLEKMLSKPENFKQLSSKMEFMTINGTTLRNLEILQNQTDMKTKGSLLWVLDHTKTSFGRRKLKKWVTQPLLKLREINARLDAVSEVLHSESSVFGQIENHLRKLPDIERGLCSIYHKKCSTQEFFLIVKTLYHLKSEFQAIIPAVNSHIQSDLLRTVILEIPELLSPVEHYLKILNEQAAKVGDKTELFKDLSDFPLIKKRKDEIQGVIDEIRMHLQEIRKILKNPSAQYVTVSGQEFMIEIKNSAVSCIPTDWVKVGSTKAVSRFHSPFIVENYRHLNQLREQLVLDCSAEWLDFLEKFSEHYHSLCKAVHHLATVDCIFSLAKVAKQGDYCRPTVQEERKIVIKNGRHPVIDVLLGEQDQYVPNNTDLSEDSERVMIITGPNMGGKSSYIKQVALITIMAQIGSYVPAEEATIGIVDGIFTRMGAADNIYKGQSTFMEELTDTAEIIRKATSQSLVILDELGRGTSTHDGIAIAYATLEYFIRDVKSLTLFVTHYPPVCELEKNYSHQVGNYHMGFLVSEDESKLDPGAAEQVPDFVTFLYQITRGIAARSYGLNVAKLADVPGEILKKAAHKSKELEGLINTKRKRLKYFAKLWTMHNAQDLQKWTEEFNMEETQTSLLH

Each structure is given as a SMILES string. This is one part of the list.
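Note: competitive chemoproteomic profiling in live THP-1 cells with an iodoacetamide desthiobiotin (IA-DTB) probe, comparing probe-labelled peptide intensities in compound-treated cells against DMSO-treated controls.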

Take `CC1Cc2ccccc2N1C(=O)C1CCCN(C(=O)CCl)C1` (mixture of isomers) [TRIM25 ligand 11 (diastereomer mixture)]: the “probe-labelled cysteine peptide fold change” value was found to be 0.262 (10 µM) and 0.301 (50 µM).

The record behind these values is the supplement of paper PMC12067093, “Discovery and optimisation of a covalent ligand for TRIM25 and its application to targeted protein ubiquitination” (Chemical Science, 2025).
